Results are given in words; binding and its absence hold for the method and conditions named. Binding seen in cells or lysates may run through a third protein. Some binding calls cover weakened binding; strength is not graded here.
Tests used:
[1] = target: Growth factor receptor-bound protein 14 fused to YFP (Grb14-YFP) (UniProt O88900); assay: co-IP; wheat-germ-lectin partially purified IR-Rluc from control or insulin-stimulated cells preincubated 20 min with DMSO or compounds, Grb14-YFP extract added for 40 min; anti-GFP antibody and protein G-agarose 1 h at room temperature; blot with anti-IR; only the binder purified
[2] = target: Growth factor receptor-bound protein 14 fused to YFP (Grb14-YFP) (UniProt O88900); assay: FRET or BRET; a-cellular BRET; IR-Rluc partially purified on wheat-germ lectin Sepharose from HEK-293T cells stimulated or not with 100 nM insulin, preincubated 20 min at room temperature with compound or DMSO, then extract of Grb14-YFP cells for 40 min, coelenterazine 2.5 µM (Protocol 1); Protocol 2: Grb14-YFP extract preincubated with IR 40 min before C8; Protocol 3: all added simultaneously; only the binder purified

By UniProt entry, the sequences of proteins in these tests, tags left out. Residues count along the entry.
UniProt O88900: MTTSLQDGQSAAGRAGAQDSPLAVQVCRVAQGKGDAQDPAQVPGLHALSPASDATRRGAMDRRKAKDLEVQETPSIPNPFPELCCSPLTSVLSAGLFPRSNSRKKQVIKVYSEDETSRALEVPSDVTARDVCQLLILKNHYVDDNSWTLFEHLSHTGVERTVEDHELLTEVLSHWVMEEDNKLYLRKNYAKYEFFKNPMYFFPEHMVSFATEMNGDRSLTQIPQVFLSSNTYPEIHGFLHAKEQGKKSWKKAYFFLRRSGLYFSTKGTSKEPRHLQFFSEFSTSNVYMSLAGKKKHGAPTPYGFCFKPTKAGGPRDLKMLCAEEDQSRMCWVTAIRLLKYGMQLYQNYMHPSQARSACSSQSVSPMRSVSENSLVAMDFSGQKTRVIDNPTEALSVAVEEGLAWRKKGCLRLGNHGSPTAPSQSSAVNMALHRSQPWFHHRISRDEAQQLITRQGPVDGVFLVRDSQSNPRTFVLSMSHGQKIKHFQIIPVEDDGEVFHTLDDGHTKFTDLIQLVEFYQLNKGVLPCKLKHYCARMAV
UniProt P06213, residues 28-1382: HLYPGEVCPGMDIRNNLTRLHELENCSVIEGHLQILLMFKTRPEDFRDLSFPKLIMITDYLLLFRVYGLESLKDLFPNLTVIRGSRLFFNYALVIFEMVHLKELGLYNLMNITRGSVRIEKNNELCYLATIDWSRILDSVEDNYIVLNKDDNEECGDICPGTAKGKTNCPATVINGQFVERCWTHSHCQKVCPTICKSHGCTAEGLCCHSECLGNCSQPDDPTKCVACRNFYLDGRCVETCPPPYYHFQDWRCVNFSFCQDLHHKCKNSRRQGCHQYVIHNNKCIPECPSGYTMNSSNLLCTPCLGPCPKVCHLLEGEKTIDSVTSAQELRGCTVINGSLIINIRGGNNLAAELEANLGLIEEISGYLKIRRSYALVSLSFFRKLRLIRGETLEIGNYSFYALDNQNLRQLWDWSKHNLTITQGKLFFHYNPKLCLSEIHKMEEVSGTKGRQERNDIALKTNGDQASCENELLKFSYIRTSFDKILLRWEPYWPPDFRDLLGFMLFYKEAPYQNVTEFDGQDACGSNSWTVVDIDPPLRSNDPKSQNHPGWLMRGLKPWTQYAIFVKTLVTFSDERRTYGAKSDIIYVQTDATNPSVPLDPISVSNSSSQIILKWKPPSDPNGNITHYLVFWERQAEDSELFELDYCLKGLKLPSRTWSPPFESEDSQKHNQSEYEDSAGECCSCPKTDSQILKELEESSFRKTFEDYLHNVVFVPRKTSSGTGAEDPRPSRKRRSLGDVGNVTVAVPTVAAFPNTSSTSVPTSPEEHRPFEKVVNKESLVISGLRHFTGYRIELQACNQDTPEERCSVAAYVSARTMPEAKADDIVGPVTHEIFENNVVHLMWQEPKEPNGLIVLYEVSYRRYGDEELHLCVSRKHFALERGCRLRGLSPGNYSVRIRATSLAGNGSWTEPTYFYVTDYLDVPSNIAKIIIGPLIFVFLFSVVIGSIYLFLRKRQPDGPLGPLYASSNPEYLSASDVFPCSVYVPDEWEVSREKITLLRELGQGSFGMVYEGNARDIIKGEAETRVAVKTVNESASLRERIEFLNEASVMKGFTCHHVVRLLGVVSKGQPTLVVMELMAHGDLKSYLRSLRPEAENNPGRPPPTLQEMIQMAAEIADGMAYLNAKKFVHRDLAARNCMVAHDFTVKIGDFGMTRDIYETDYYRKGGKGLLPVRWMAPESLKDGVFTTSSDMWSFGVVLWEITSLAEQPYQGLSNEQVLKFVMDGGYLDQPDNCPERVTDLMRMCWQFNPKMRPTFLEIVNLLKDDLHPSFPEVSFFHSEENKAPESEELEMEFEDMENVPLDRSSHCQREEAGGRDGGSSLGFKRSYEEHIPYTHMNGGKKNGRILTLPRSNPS

Substance: Insulin receptor fused to Renilla luciferase (IR-Rluc) (from UniProt P06213 28-1382)
- binding [1]: binds
- binding [2]: binds
